Part of at least one peptide drawing is inferred or uncertain, most often the ends. Peptide text beside a SMILES is read from it.
Tests used:
Format in all cases: cell-based
[1] = tested on: human-derived chondrocytes (C28/12 cells); test: Glycosaminoglycan production, Alcian blue staining; settings: different concentrations, 7 days
[2] = tested on: human-derived chondrocytes (C28/12 cells); test: mRNA expression of ECM components, RT-PCR; settings: different concentrations, 1, 3 and 7 days
[3] = tested on: human-derived chondrocytes (C28/12 cells); test: mRNA expression of ECM regulatory factor SOX9, RT-PCR; settings: different concentrations, 1, 3 and 7 days
[4] = tested on: human-derived chondrocytes (C28/12 cells); test: Expression of ECM regulatory factors SOX5, SOX6 and SOX9, Western blot; settings: different concentrations, 1, 3 and 7 days
[5] = tested on: human-derived chondrocytes (C28/12 cells); test: Expression of aggrecan and COL2A1, Western blot; settings: different concentrations, 1, 3 and 7 days
[6] = tested on: human-derived chondrocytes (C28/12 cells); test: Nuclear translocation of SOX9, nuclear extraction and Western blot; settings: serum starvation 4 hours, various concentrations, 0-120 minutes, Western blot of SOX9 and phospho-SOX9 (Ser181)

N[C@@H](CCC(=O)O)C(=O)N[C@@H](Cc1ccc(O)cc1)C(=O)N[C@@H](Cc1ccccc1)C(=O)N[C@@H](Cc1c[nH]c2ccccc12)C(=O)O [Peptide-1, Glu(E)-Tyr(Y)-Phe(F)-Trp(W)] (H-EYFW-OH)
production of glycosaminoglycan [1]: promoted
mRNA production of ACAN [2]: increased
mRNA production of COL2A1 [2]: increased
mRNA production of COL11A [2]: increased
mRNA production of COMP [2]: increased
production of SOX9 (mRNA expression) [3]: induced
expression of SOX5 [4]: increased
expression of SOX6 [4]: increased
expression of SOX9 [4]: increased
expression of COL2A1 [5]: increased
expression of aggrecan [5]: increased
nuclear translocation of SOX9 [6]: promotes

CC(C)C[C@H](NC(=O)[C@@H](NC(=O)[C@@H](N)CCCNC(=N)N)[C@@H](C)O)C(=O)O [Peptide-2, Arg(R)-Thr(T)-Leu(L)] (H-Arg-Thr-Leu-OH)
production of glycosaminoglycan [1]: promoted
mRNA production of ACAN [2]: increased
mRNA production of COL2A1 [2]: increased
mRNA production of COL11A [2]: increased
mRNA production of COMP [2]: increased
production of SOX9 (mRNA expression) [3]: induced
expression of SOX5 [4]: increased
expression of SOX6 [4]: increased
expression of SOX9 [4]: increased
expression of COL2A1 [5]: increased
expression of aggrecan [5]: increased

— patent US20260200975A1, “PEPTIDE FOR CARTILAGE REGENERATION, AND USES THEREOF” (CAREGEN CO., LTD., priority 2022, published 2026)
